Assay results as given in the supplement of paper PMC12823440, “Inhibitors supercharge kinase turnover through native proteolytic circuits” (Nature, 2025).
Where a name gives a salt, the structure may show the parent alone. The list shows a part of the results. Hit calls seldom repeat between salt and free forms of one compound.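 In K562 cells expressing nanoluciferase-fused kinases, luminescence was recorded at 4 h intervals between 2 and 18 h, normalized as percent of control with DMSO at 100% and a positive control at 0%. A significant (2 sigma) signal drop marks a time point as decreased. The authors' rule for a hit is not shown and takes in more than the number of time points.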

Sequences of proteins named here, by UniProt entry; tags and fusion partners are left off. A change or cut given only in a name is not applied to a line headed by its entry.
UniProt P07948: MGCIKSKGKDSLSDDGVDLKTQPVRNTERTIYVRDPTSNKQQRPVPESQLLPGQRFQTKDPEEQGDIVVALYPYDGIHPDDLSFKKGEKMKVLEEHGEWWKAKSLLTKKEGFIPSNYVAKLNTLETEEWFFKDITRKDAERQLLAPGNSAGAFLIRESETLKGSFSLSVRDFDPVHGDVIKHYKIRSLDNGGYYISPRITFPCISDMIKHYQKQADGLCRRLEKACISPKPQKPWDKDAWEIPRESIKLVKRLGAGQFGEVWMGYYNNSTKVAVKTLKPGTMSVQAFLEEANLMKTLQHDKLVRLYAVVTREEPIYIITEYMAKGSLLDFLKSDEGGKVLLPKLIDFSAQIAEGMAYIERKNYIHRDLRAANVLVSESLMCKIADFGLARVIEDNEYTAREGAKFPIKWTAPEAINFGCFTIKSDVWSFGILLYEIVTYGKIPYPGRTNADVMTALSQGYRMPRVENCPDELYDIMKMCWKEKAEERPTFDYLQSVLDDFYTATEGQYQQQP
UniProt P28482, whole entry: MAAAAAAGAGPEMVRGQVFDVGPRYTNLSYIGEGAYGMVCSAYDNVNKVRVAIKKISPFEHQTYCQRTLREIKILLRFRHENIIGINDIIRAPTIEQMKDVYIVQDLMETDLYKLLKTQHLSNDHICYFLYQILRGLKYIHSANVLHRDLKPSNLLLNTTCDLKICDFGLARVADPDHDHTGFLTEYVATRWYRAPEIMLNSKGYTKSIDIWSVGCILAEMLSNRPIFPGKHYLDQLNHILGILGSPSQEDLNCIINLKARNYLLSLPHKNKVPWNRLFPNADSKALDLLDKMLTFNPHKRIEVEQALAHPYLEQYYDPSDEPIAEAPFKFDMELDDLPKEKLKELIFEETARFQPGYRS
UniProt Q9BUB5: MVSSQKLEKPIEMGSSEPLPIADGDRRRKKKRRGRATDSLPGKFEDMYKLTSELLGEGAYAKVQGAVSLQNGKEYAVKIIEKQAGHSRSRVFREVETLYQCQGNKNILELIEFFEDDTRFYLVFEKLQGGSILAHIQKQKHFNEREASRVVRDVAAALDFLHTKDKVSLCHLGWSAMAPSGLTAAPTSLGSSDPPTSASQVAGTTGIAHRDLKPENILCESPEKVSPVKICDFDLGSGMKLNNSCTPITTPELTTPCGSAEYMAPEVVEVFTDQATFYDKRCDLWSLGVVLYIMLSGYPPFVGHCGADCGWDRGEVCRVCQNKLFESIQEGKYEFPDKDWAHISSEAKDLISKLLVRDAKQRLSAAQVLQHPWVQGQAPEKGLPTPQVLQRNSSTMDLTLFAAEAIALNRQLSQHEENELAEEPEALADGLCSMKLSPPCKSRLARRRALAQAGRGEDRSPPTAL
UniProt Q96KB5: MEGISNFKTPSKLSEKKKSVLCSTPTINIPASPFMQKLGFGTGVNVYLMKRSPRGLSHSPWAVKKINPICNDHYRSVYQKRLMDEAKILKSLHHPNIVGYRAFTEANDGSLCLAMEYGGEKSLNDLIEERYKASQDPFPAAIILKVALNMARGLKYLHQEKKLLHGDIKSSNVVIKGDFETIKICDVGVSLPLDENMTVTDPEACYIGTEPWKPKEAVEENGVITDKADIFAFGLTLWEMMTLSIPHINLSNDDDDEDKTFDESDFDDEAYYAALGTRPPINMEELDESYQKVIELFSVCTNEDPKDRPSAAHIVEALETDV
UniProt P09619, whole entry: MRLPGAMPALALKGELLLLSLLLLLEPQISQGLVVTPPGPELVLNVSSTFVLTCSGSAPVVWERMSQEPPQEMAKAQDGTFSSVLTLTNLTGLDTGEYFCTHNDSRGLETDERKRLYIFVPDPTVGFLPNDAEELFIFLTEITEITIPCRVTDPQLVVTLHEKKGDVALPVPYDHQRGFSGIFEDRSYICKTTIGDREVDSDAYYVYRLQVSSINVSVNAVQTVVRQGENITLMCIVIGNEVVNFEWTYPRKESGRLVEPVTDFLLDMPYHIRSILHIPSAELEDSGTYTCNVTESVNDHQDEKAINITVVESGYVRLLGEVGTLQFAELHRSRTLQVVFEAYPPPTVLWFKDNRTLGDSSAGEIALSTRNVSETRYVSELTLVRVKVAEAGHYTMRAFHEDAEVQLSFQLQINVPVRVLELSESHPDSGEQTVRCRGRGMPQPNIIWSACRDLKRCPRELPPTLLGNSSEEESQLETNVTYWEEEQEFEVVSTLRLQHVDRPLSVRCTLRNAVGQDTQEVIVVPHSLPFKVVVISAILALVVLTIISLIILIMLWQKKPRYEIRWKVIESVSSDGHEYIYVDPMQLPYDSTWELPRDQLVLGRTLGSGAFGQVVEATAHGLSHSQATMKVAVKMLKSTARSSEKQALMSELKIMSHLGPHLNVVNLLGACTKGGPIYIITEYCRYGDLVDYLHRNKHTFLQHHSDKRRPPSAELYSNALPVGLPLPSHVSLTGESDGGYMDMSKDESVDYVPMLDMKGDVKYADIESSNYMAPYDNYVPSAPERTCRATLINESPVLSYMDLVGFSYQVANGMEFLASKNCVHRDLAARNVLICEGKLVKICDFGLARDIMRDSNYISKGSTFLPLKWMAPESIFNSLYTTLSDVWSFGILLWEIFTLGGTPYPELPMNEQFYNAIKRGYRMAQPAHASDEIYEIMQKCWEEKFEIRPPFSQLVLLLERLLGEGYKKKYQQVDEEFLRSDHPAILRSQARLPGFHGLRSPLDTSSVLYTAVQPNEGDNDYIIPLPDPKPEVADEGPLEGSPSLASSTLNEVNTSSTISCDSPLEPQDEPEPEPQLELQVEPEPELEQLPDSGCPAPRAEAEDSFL
UniProt P42356, whole entry, looked up: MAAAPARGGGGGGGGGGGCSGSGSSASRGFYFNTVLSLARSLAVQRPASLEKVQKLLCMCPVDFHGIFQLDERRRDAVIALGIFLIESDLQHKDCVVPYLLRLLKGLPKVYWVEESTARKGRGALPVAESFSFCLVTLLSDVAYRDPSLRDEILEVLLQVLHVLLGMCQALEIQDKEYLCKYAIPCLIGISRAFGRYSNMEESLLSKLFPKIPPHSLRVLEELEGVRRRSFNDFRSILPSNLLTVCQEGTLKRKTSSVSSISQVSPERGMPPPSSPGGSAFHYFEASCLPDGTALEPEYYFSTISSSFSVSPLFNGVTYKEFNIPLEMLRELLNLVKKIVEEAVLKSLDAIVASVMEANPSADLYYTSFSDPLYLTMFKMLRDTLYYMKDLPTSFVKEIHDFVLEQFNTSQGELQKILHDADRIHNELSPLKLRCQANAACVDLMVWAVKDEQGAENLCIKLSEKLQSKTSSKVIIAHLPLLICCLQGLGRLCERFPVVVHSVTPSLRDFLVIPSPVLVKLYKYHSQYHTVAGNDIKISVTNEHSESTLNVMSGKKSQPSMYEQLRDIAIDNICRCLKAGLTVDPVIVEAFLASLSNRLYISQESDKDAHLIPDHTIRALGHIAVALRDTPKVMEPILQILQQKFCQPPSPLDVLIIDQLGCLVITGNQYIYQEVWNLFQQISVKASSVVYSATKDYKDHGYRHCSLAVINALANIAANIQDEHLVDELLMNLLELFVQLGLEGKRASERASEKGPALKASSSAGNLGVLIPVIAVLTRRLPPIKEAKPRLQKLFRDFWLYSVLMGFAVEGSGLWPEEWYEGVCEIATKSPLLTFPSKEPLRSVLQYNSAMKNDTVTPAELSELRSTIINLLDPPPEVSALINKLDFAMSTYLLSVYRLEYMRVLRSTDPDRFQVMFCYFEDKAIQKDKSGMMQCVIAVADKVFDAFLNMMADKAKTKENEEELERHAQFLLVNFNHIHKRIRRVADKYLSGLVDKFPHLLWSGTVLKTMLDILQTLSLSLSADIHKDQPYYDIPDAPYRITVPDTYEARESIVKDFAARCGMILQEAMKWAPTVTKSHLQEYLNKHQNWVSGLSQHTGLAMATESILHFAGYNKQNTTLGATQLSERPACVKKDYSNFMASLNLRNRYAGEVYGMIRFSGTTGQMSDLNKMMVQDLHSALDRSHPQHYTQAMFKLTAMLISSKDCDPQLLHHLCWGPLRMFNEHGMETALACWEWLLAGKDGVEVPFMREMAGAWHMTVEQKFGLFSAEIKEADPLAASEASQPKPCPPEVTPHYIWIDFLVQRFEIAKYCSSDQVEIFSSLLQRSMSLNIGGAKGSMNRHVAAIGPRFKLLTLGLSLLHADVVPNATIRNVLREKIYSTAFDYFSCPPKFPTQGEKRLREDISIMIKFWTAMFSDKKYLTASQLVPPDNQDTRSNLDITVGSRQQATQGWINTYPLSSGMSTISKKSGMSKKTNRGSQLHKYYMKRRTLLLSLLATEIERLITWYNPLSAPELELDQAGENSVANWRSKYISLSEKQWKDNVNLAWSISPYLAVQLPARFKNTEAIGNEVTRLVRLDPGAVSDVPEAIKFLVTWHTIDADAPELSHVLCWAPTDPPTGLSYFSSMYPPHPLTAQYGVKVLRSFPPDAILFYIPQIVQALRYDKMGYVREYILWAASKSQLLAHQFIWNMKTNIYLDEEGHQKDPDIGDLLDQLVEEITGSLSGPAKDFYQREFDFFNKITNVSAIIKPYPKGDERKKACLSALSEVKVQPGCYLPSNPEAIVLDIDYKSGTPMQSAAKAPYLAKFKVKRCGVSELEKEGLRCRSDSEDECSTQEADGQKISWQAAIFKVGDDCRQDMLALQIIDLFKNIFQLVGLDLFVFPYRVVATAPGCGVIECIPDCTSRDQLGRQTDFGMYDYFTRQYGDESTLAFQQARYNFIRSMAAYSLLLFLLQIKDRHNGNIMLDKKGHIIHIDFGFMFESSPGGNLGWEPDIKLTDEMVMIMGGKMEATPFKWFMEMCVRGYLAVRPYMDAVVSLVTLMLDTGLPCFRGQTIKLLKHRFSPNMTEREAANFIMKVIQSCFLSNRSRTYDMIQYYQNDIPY
UniProt Q9UBF8: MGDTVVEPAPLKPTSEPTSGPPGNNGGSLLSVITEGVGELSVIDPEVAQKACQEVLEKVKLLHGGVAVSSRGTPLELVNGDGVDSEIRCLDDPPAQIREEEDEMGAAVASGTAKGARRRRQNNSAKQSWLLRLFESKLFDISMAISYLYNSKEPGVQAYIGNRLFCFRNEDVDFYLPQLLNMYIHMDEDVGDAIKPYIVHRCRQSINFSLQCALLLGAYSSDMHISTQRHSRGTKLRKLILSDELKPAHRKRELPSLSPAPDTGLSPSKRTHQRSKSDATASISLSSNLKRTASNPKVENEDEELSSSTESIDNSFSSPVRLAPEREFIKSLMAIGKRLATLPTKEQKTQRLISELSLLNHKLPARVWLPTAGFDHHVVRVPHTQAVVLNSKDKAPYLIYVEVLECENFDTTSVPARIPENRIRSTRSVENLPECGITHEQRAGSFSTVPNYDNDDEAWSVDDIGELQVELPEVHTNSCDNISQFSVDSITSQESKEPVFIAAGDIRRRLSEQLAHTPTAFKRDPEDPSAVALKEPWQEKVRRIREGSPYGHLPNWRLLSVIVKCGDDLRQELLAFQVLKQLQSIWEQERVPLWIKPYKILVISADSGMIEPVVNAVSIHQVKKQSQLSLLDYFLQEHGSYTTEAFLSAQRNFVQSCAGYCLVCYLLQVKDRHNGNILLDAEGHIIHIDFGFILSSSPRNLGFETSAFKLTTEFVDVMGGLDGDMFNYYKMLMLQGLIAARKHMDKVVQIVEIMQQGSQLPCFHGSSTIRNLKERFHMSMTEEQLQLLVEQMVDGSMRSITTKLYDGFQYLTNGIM
UniProt Q13131: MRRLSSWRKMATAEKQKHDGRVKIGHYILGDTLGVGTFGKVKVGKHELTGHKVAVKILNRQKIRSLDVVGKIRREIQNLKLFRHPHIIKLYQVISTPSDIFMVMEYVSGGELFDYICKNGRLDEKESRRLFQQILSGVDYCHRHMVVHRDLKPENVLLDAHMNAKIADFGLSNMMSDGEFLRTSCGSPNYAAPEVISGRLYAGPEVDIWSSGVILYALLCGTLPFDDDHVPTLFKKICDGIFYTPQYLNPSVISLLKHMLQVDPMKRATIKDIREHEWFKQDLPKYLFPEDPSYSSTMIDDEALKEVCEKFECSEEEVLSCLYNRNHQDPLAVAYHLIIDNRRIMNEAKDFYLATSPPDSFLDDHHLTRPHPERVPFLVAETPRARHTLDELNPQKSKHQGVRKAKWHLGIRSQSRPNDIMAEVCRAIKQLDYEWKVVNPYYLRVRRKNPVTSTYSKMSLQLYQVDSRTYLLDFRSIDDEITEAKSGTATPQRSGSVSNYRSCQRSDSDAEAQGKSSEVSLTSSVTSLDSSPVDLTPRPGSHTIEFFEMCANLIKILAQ

Experiments:
Assay in all cases: number of time points (of 5) at which kinase-Nluc abundance scored as decreased, DMSO-normalised (count); higher = more persistent destabilization
Conditions in all cases: K562; 2-18 h
LMTK2 = LMTK2 (UniProt Q8IWU2)
LYN = LYN (UniProt P07948)
MAP2K1 = MAP2K1 (UniProt Q02750)
MAP2K2 = MAP2K2 (UniProt P36507)
MAP4K2 = MAP4K2 (UniProt Q12851)
MAPK1 = MAPK1 (UniProt P28482)
MAPK4 = MAPK4 (UniProt P31152)
MAPKAPK2 = MAPKAPK2 (UniProt P49137)
MKNK1 = MKNK1 (UniProt Q9BUB5)
NTRK2 = NTRK2 (UniProt Q16620)
NTRK3 = NTRK3 (UniProt Q16288)
PAK4 = PAK4 (UniProt O96013)
PBK = PBK (UniProt Q96KB5)
PDGFRB = PDGFRB (UniProt P09619)
PDK1 = PDK1 (UniProt Q15118)
PDPK1 = PDPK1 (UniProt O15530)
PIK4CA = PIK4CA (UniProt P42356)
PIK4CB = PIK4CB (UniProt Q9UBF8)
PLK1 = PLK1 (UniProt P53350)
PRKAA1 = PRKAA1 (UniProt Q13131)

SMILES	number of time points (LMTK2)	number of time points (LYN)	number of time points (MAP2K1)	number of time points (MAP2K2)	number of time points (MAP4K2)	number of time points (MAPK1)	number of time points (MAPK4)	number of time points (MAPKAPK2)	number of time points (MKNK1)	number of time points (NTRK2)	number of time points (NTRK3)	number of time points (PAK4)	number of time points (PBK)	number of time points (PDGFRB)	number of time points (PDK1)	number of time points (PDPK1)	number of time points (PIK4CA)	number of time points (PIK4CB)	number of time points (PLK1)	number of time points (PRKAA1)
O=C(NOCCO)c1ccc2cncn2c1Nc1ccc(I)cc1F (10 µM)	0	0	0	0	0	0	0	0	0	0	0	0	0	1	0	2	0	0	0	1
CC(=O)NCCc1c[nH]c2ccc(O)cc12 [N-Acetyl-5-hydroxytryptamine] (10 µM)	0	0	0	0	0	0	0	0	0	0	0	0	0	0	0	0	0	0	0	0
C=C[C@H]1[C@H](O[C@@H]2O[C@H](CO)[C@@H](O)[C@H](O)[C@H]2OC(=O)c2c(O)cc(O)cc2-c2cccc(O)c2)OC=C2C(=O)OCC[C@H]21 [Amarogentin] (10 µM)	0	0	0	0	0	0	0	0	0	0	0	0	0	0	0	0	0	0	0	0
c1ccc(-c2nn3c(c2-c2ccnc4cc(OCCN5CCOCC5)ccc24)CCC3)nc1 (10 µM)	0	0	0	0	0	0	0	0	0	0	0	0	0	0	0	0	0	0	0	0
CC(C)n1cnc2c(Nc3cccc(Cl)c3)nc(NCCO)nc21 (10 µM)	0	0	0	0	0	0	0	0	0	0	0	0	0	0	0	0	0	0	0	0
CN(C)c1ncnc2nc[nH]c12 [6-(Dimethylamino)purine] (10 µM)	0	0	0	0	0	0	0	0	0	0	0	0	0	0	0	0	0	0	0	0
COc1cc(-c2cc(-c3cc(OC)c(OC)c(OC)c3)cc(C(F)P(=O)(OCOC(=O)C(C)(C)C)OCOC(=O)C(C)(C)C)c2)cc(OC)c1OC (stereo not given) [Stafia-1-dipivaloyloxymethyl ester] (2.5 µM)	0	0	0	0	0	0	0	0	0	0	0	0	0	0	0	0	0	0	0	0
Oc1ccccc1C(=S)N1CCCC1 (10 µM)	0	0	0	0	0	0	0	0	0	0	0	0	0	0	0	0	0	0	0	0
CCCCOc1ccc(CC/C=C2\SC(=O)N(CCN)C2=O)cc1 [K145 (hydrochloride)] (2.5 µM)	0	0	0	0	0	0	0	0	0	0	0	0	0	0	0	0	0	0	0	0
C=CS(=O)(=O)c1ccc(Nc2nc(OCC3CCCCC3)c3[nH]cnc3n2)cc1 (2.5 µM)	0	0	0	0	0	0	0	0	0	0	0	0	0	0	0	0	0	0	0	0
Nc1n[nH]c2cc(-c3ccc(=O)n(Cc4cccc(Cl)c4)c3)ccc12 (10 µM)	0	0	0	0	0	0	0	0	0	0	0	0	0	0	0	0	0	0	0	0
CSc1ccc(CN2CCCC(Nc3ccc4[nH]ncc4c3)C2)cc1 (stereo not given) [Rho-Kinase-IN-1] (10 µM)	0	0	0	0	0	0	0	0	0	0	0	0	0	0	0	0	0	0	0	0
CCCC(=O)Nc1nc2c(ncn2[C@@H]2O[C@@H]3COP(=O)(O)O[C@H]3[C@H]2OC(=O)CCC)c(=O)[nH]1 [Dibutyryl-cGMP (sodium)] (10 µM)	0	0	0	0	0	0	0	0	0	0	0	0	0	0	0	0	0	0	0	0
COc1cc(C(C)=O)cc(OC)c1O [Acetosyringone] (10 µM)	0	0	0	0	0	0	0	0	0	0	0	0	0	0	0	0	0	0	0	0
CC(=O)Nc1nc2ccc(-c3cnc(C)c(NC(=O)OC4CCCCC4)c3)cc2s1 (10 µM)	0	0	0	0	0	0	0	0	0	0	0	0	0	0	0	0	0	0	0	0
COc1ccc(-n2c(C)c([N+](=O)[O-])c3ccc(O)cc32)cc1 (10 µM)	0	0	0	0	0	0	0	0	0	0	0	0	0	0	0	0	0	0	0	4
Cc1cc2cc(Oc3ccnc(Nc4cccc(CS(=O)(=O)NCCN(C)C)c4)n3)ccc2[nH]1 [Sulfatinib] (10 µM)	0	0	0	0	0	0	0	0	0	0	0	0	0	0	0	4	0	0	0	0

SMILES	number of time points (LMTK2)	number of time points (LYN)	number of time points (MAP2K1)	number of time points (MAP2K2)	number of time points (MAP4K2)	number of time points (MAPK1)	number of time points (MAPK4)	number of time points (MAPKAPK2)	number of time points (MKNK1)	number of time points (NTRK2)	number of time points (NTRK3)	number of time points (PAK4)	number of time points (PBK)	number of time points (PDGFRB)	number of time points (PDK1)	number of time points (PDPK1)	number of time points (PIK4CA)	number of time points (PIK4CB)	number of time points (PLK1)	number of time points (PRKAA1)
COc1ccc2c(c1)c(C1=C(c3c[nH]c4ccccc34)C(=O)NC1=O)cn2CCCN(C)C (10 µM)	0	0	0	0	0	0	0	0	0	0	0	0	0	0	0	0	0	0	0	0
O=C1NC(=O)/C(=C/c2ccc(-c3ccc(F)cc3O)o2)S1 (10 µM)	0	0	0	0	0	0	0	0	0	0	0	0	0	0	0	0	0	0	0	0
CN(C)c1nc2c(Br)c(Br)c(Br)c(Br)c2n1CC(=O)O (10 µM)	0	0	0	0	0	0	0	0	0	0	0	0	0	0	0	0	0	0	0	0
O=S(=O)(c1cccc2cnccc12)N1CCNCC1 (10 µM)	0	0	0	0	0	0	0	0	0	0	0	0	0	0	0	0	0	0	0	0
Cc1cc2ncc(-c3ccccc3)nc2cc1C (10 µM)	0	0	0	0	0	0	0	0	0	0	0	0	0	0	0	0	0	0	0	0
CN(C)Cc1cccc(N=C(c2ccccc2)c2c(O)[nH]c3cc(C(=O)N(C)C)ccc23)c1 (10 µM)	0	0	0	0	0	0	0	0	0	0	0	0	0	0	0	0	0	0	0	0
CC[C@@H]1C(=O)N(C)c2cnc(Nc3ccc(C(=O)N[C@H]4CC[C@H](N5CCN(CC6CC6)CC5)CC4)cc3OC)nc2N1C(C)C [Volasertib] (2.5 µM)	0	0	0	0	0	0	0	0	0	0	0	0	0	0	0	0	0	0	0	0
CCOc1nc(Nc2ccc(C(=O)N3CCOCC3)cc2OC)nc2[nH]ccc12 [LRRK2 inhibitor 1] (2.5 µM)	0	0	0	0	0	0	0	0	0	0	0	0	0	0	0	0	0	0	0	0
COc1cc(C(=O)N2CCC(N3CCN(C)CC3)CC2)ccc1Nc1ncc2c(n1)N(C)c1ccccc1C(=O)N2C (10 µM)	0	0	0	0	0	0	0	0	0	0	0	0	0	0	0	0	0	0	0	0
COc1nc(-c2cccc3c2OCCO3)ccc1Nc1ccc(CN(C)C)cc1 [RAS inhibitor Abd-7] (10 µM)	0	1	0	0	0	0	0	0	0	0	0	0	0	0	0	0	0	0	0	0
COc1ccc(CN2C3CC2CN(c2ccc(-c4cc(OCC(C)(C)O)cn5ncc(C#N)c45)cn2)C3)cn1 [Selpercatinib] (10 µM)	0	0	0	0	0	0	0	0	0	0	0	0	0	0	0	0	0	0	0	0
Cc1cccc(-c2[nH]ncc2-c2ccc3ncccc3n2)n1 (10 µM)	0	0	0	0	0	0	0	0	0	0	0	0	0	0	0	0	0	0	0	0
COc1ccccc1/C=C1\C(=O)Nc2ccccc21 (10 µM)	0	0	0	0	0	0	0	0	0	0	0	0	0	0	0	0	0	0	0	0
O=C(O)c1ccccc1Nc1cccc(C(F)(F)F)c1 [Flufenamic acid] (10 µM)	0	0	4	0	0	0	0	0	0	0	0	0	0	0	0	0	0	0	0	0
O=C(c1ccc(Nc2nccc(-c3cc4ccccc4s3)n2)cc1)N1CCC(N2CCCC2)CC1 (2.5 µM)	0	0	0	0	0	0	0	0	0	0	0	0	0	0	0	0	0	0	0	0
N#C/C(=C(/N)Sc1ccc(N)cc1)c1ccccc1C(F)(F)F (10 µM)	0	0	0	0	0	0	0	0	0	0	0	0	0	0	0	0	0	0	0	0
O=c1nc(N2CCOCC2)oc2c(-c3cccc4c3sc3ccccc34)cccc12 (10 µM)	1	0	0	0	0	0	0	0	0	0	0	0	0	0	0	0	0	0	0	0

Gathered by group: the compounds so far with a cyano group.
SMILES	number of time points (LMTK2)	number of time points (LYN)	number of time points (MAP2K1)	number of time points (MAP2K2)	number of time points (MAP4K2)	number of time points (MAPK1)	number of time points (MAPK4)	number of time points (MAPKAPK2)	number of time points (MKNK1)	number of time points (NTRK2)	number of time points (NTRK3)	number of time points (PAK4)	number of time points (PBK)	number of time points (PDGFRB)	number of time points (PDK1)	number of time points (PDPK1)	number of time points (PIK4CA)	number of time points (PIK4CB)	number of time points (PLK1)	number of time points (PRKAA1)
COc1ccc(CN2C3CC2CN(c2ccc(-c4cc(OCC(C)(C)O)cn5ncc(C#N)c45)cn2)C3)cn1 [Selpercatinib] (10 µM)	0	0	0	0	0	0	0	0	0	0	0	0	0	0	0	0	0	0	0	0
N#C/C(=C(/N)Sc1ccc(N)cc1)c1ccccc1C(F)(F)F (10 µM)	0	0	0	0	0	0	0	0	0	0	0	0	0	0	0	0	0	0	0	0
